Reference: the supplement of paper PMC10849652
The other results are listed elsewhere or left out.

Chains of the proteins cited; added tags and fusions are not shown. Lines headed by an entry give the natural chain unless they say otherwise; changes in a name come on top.
UniProt Q9BSV6: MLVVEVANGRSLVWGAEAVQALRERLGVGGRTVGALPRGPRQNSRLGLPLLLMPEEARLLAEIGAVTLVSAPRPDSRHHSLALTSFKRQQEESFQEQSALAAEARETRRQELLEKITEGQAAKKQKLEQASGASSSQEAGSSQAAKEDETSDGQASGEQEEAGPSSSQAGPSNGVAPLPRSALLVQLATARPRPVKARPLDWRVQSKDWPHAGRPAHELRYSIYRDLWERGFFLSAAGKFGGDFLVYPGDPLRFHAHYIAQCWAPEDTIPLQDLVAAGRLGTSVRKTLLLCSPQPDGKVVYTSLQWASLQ
UniProt Q9Y296, whole entry, looked up: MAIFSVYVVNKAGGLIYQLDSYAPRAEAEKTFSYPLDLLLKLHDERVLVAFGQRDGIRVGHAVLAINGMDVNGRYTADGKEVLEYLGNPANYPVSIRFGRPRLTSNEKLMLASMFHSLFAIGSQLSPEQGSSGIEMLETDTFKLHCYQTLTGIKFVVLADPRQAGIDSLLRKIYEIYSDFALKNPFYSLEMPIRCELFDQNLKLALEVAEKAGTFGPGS
UniProt O43617, whole entry, looked up: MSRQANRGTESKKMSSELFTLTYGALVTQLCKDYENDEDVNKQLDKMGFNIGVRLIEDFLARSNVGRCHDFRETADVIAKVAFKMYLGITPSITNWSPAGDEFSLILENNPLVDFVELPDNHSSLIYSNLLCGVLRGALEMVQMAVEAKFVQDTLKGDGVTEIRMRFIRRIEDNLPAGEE
UniProt P19474, whole entry, looked up: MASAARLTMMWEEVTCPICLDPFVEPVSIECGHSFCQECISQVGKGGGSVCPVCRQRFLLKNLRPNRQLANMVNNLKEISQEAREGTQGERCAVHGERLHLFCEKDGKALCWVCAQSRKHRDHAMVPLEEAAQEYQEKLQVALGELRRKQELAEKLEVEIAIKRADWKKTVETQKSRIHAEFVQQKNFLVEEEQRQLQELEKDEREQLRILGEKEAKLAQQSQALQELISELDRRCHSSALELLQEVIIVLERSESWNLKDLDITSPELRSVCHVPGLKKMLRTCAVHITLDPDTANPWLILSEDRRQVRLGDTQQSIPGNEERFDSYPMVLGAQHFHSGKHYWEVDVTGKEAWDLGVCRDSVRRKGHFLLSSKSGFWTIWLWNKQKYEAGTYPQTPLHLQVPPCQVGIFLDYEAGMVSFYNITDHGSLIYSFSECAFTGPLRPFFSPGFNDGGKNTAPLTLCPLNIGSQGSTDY
UniProt Q86SZ2: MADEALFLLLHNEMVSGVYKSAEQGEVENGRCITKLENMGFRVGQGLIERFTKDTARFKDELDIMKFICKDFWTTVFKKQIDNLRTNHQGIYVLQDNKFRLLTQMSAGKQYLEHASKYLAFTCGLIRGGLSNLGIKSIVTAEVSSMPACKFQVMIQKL
UniProt O00635: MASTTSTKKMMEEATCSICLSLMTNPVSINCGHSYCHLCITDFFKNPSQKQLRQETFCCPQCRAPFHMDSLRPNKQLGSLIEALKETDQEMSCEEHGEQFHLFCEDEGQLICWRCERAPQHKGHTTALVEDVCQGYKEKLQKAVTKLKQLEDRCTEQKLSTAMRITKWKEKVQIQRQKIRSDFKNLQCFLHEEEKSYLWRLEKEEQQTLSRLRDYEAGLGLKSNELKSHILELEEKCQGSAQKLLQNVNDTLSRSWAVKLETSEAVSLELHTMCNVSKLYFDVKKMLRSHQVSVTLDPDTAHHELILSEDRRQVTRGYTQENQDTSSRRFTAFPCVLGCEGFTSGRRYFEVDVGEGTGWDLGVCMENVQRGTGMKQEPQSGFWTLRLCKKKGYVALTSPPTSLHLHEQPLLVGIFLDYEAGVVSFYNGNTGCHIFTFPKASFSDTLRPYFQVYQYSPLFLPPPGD
UniProt Q8NG11: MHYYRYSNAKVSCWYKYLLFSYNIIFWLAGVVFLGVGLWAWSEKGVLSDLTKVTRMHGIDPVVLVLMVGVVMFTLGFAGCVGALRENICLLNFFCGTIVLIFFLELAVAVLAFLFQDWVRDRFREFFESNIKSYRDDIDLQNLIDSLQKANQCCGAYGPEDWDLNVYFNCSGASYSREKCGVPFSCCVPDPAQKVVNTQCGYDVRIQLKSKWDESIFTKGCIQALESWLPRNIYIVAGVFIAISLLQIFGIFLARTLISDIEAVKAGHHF
UniProt P48553, whole entry, looked up: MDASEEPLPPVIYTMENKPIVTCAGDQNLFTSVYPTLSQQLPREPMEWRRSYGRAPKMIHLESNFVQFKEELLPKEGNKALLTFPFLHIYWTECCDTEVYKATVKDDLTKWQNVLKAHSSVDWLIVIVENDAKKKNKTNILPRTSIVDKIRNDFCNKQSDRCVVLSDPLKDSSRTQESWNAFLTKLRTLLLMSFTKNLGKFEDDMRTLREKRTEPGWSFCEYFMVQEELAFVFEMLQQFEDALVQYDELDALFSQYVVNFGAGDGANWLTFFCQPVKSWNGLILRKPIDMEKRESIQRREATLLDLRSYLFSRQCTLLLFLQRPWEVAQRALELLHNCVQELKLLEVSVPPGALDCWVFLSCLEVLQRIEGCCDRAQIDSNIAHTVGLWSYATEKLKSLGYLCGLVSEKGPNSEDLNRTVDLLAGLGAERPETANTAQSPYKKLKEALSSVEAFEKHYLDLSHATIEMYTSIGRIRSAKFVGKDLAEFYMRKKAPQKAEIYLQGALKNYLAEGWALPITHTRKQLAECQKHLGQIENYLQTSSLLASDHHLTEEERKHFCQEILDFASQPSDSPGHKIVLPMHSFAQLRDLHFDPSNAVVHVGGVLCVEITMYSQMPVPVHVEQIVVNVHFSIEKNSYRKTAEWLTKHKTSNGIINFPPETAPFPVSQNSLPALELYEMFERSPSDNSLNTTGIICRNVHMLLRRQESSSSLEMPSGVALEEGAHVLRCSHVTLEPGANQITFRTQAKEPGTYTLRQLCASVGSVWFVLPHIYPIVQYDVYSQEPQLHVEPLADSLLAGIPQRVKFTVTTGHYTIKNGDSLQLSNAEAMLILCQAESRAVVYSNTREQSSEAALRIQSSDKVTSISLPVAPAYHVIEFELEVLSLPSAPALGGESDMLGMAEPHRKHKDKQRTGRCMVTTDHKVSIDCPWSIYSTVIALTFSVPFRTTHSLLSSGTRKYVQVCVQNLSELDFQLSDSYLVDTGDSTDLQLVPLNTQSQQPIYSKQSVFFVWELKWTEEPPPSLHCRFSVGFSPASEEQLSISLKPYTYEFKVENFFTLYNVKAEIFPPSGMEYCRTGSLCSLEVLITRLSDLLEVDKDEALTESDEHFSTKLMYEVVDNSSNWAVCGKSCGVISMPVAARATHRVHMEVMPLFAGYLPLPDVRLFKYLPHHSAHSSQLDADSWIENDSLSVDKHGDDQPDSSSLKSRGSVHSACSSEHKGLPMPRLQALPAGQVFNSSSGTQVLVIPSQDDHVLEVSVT
UniProt Q7Z2T5: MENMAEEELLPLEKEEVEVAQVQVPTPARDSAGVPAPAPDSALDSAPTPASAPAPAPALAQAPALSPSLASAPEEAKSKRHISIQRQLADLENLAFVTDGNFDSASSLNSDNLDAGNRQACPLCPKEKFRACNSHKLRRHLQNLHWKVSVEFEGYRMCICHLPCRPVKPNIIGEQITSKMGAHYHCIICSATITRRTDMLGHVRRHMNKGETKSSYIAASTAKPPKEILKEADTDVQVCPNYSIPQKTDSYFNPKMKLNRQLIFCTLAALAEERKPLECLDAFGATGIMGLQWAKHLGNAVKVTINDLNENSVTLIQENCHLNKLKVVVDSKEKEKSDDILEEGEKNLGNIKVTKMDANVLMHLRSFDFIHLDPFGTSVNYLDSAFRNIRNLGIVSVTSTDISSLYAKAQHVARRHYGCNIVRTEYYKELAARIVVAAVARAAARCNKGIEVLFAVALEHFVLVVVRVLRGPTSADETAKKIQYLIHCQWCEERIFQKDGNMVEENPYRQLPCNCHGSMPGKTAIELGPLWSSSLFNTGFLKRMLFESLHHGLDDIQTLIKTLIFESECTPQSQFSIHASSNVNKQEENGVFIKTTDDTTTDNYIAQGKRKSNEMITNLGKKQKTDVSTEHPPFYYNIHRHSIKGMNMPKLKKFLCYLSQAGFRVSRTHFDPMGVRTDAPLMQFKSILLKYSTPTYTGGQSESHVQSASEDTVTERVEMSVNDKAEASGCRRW
UniProt Q9H3H1: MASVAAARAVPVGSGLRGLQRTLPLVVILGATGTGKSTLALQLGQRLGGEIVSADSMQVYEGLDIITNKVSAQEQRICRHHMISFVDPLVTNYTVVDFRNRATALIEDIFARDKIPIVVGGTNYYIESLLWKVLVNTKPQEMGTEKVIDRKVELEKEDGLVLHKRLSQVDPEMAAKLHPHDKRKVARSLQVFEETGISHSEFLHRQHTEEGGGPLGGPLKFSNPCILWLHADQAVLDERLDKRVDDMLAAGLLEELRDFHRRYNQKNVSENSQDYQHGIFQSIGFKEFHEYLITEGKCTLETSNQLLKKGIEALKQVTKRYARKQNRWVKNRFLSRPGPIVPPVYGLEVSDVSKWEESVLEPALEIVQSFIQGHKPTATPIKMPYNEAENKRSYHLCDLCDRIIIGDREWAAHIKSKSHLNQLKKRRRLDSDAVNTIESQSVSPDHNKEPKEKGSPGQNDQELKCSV
UniProt Q15643: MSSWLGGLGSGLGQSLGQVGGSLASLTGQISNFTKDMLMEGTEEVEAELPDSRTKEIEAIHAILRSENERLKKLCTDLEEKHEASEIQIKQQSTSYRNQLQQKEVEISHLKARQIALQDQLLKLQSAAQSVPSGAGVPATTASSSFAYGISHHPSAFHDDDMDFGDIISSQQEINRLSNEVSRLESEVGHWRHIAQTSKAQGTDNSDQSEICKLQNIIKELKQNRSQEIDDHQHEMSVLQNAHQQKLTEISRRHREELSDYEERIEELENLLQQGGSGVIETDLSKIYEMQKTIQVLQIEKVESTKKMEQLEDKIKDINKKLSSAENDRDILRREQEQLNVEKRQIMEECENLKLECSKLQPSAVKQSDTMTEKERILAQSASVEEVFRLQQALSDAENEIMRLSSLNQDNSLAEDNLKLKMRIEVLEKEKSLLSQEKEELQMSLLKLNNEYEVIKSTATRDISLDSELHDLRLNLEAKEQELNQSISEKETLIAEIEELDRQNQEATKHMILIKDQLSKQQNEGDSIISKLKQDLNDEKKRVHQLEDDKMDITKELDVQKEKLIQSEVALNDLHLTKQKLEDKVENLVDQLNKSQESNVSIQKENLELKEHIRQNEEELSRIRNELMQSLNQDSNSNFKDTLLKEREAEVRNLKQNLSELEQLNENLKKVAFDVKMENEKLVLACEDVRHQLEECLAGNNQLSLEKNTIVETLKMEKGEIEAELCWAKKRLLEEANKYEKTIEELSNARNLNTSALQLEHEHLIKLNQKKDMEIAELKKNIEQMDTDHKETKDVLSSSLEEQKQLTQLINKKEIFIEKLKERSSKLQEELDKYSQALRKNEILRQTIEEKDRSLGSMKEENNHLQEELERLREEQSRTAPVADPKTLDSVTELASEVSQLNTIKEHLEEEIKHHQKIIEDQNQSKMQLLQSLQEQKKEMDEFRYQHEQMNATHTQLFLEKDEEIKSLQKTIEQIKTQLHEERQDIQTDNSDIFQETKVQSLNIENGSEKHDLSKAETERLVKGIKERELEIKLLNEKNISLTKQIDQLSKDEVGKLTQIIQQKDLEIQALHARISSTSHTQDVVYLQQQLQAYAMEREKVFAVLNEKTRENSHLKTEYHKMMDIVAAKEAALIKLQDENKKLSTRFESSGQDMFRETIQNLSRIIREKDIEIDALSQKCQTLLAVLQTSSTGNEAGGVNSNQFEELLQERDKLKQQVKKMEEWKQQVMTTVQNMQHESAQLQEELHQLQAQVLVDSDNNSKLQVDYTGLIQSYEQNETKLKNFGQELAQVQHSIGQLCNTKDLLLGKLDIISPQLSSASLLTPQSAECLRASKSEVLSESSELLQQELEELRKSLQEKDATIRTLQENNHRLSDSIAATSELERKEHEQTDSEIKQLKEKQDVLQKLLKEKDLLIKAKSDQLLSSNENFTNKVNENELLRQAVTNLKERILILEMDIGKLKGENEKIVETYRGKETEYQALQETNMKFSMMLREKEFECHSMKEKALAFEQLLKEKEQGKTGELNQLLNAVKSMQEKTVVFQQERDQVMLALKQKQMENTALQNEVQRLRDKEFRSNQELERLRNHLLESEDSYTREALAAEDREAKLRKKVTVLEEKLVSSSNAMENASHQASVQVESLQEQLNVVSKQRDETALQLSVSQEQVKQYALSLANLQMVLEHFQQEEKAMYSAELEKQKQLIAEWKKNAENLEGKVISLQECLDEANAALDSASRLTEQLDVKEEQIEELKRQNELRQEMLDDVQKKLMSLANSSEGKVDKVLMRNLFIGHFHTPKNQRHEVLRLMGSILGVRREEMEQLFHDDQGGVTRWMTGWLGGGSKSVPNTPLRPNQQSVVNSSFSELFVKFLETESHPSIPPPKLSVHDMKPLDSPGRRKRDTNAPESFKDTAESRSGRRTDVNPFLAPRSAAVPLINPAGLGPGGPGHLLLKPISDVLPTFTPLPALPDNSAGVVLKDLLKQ

Key:
Test in all cases: log2 fold change, soluble protein after heating vs DMSO (PISA); higher = thermal stabilisation; K562 lysate, 10 uM; active = over 0.2 and 3.5 SD of the protein, either way, in both replicates (recomputed)
[1] = compound: C=CC(=O)N1CCC[C@@H](n2nc(-c3ccc(Oc4ccccc4)cc3)c3c(N)ncnc32)C1 [ibrutinib]
Outline: (§1)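 Soluble protein was defined as the supernatant remaining after 21,000xg for 90 min, following pooling of heated aliquots and adjustment to 0.5% NP-40 at 4°C. Before that, crude K562 extract at 1 mg/mL protein in PBS pH 7.4 with 1 mM MgCl2 was treated with 10 μM compound for 30 min and heated for 3 min across 48°C-58°C. Quantification used TMTpro 16plex LC-MS/MS with channel sums equalised, and values are log-two fold changes in thermal stability relative to solvent controls from duplicates.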

[2] = compound: CC(=O)c1cnc2ccc(-c3cc(Cl)c(O)c(Cl)c3)nc2c1N[C@H]1CC[C@H](CN(C)C)CC1
Outline: as §1

[3] = compound: CC(C)(C)Cn1c(N)nc2ccc(-c3[nH]c(C(C)(C)C)nc3-c3ccc(F)cc3)nc21 [ralimetinib]
Outline: as §1

[4] = compound: CC(C)(O)CC(=O)NCCn1ccc2ncnc(Nc3ccc(Oc4cccc(C(F)(F)F)c4)c(Cl)c3)c21
Outline: as §1

[5] = compound: CC(C)C1=C2N=C(C=C(N2N=C1)NCC3=CC=CC=C3)NCCCCCCN
Outline: as §1

[6] = compound: CC1=C(C(CC(=O)N1)C2=CC=C(C=C2)C(F)(F)F)C(=O)NC3=C(C=C4C(=C3)C=NN4)F
Outline: as §1

[7] = compound: CC1=C(C2=C(C=C1)C(=O)C3=CC=CC=C3N2CCCN)C
Outline: as §1

[8] = compound: CC1=C(C=C(C=C1)NC(=O)C2=CC(=CC=C2)C(C)(C)C#N)NC3=CC4=C(C=C3)N=CN(C4=O)C
Outline: as §1

[9] = compound: CC1=C(C=C(C=C1)NC(=O)C2=CC(=CC=C2)N(C)C)NC(=O)C3=CC=C(C=C3)O
Outline: as §1

[10] = compound: CC1=CC=C(C=C1)SC2=C3C=C(SC3=CN=C2)C(=O)N
Outline: as §1

[11] = compound: CCCS(=O)(=O)Nc1ccc(F)c(C(=O)c2c[nH]c3ncc(-c4ccc(Cl)cc4)cc23)c1F [vemurafenib]
Outline: as §1

[12] = compound: CCCS(=O)(=O)Nc1ccc(F)c(C(=O)c2c[nH]c3ncc(Cl)cc23)c1F
Outline: as §1

[13] = compound: CCN(CCCOc1ccc2c(Nc3cc(CC(=O)Nc4cccc(F)c4)[nH]n3)ncnc2c1)CCOP(=O)(O)O [barasertib]
Outline: as §1

[14] = compound: CC[C@@H]1C(=O)N(C)c2cnc(Nc3ccc(C(=O)NC4CCN(C)CC4)cc3OC)nc2N1C1CCCC1
Outline: as §1

[15] = compound: CC[C@@H]1C(=O)N(C)c2cnc(Nc3ccc(C(=O)N[C@H]4CC[C@H](N5CCN(CC6CC6)CC5)CC4)cc3OC)nc2N1C(C)C [volasertib]
Outline: as §1

[16] = compound: CCn1c(C(=O)N(C2CC2)C2CC2)cc2c3c(ncn3C)c(Nc3cc(C)n(C)n3)nc21
Outline: as §1

[17] = compound: CCn1cc(-c2ccnc3[nH]c(-c4cccc(CN(C)C)c4)cc23)c(-c2ccc(NC(=O)N(C)C)cc2)n1
Outline: as §1

[18] = compound: CN1CCC(CNc2ccc3ncc(-c4cccc(OC(F)(F)F)c4)n3n2)CC1
Outline: as §1

[19] = compound: CN1CCN(CCOc2cc(OC3CCOCC3)c3c(Nc4c(Cl)ccc5c4OCO5)ncnc3c2)CC1 [saracatinib]
Outline: as §1

[20] = compound: CN1CCN(c2nc(C3=C(c4c[nH]c5ccccc45)C(=O)NC3=O)c3ccccc3n2)CC1 [sotrastaurin]
Outline: as §1

Measured: log2 fold change

TTC7B isoform 2 (UniProt Q86TV6)
inactive: [1] 0.084 | [2] 0.138 | [3] 0.069 | [4] -0.054 | [5] -0.05 | [6] -0.14 | [7] -0.036 | [8] 0.01 | [9] -0.108 | [10] -0.003 | [11] -0.014 | [12] 0.04 | [13] 0.08 | [14] 0.167 | [15] -0.043 | [16] 0.035 | [17] 0.166 | [18] 0.165 | [19] 0.014 | [20] 0.034

TTC27 (UniProt Q6P3X3)
inactive: [1] -0.025 | [2] 0.017 | [3] -0.012 | [4] 0.046 | [5] 0.02 | [6] 0 | [7] -0.011 | [8] -0.012 | [9] 0.034 | [10] 0.042 | [11] 0.015 | [12] 0.007 | [13] 0.028 | [14] -0.07 | [15] -0.074 | [16] 0.015 | [17] -0.085 | [18] -0.058 | [19] 0.055 | [20] 0.051

TSEN34 (UniProt Q9BSV6)
inactive: [1] 0.058 | [2] 0.009 | [3] 0.05 | [4] -0.019 | [5] 0.012 | [6] 0.012 | [7] 0.093 | [8] 0.017 | [9] -0.015 | [10] 0.058 | [11] -0.044 | [12] -0.007 | [13] 0.053 | [14] -0.015 | [15] -0.035 | [16] 0.043 | [17] -0.012 | [18] -0.016 | [19] -0.003 | [20] -0.017

TRAPPC4 (UniProt Q9Y296)
inactive: [1] -0.054 | [2] -0.009 | [3] -0.021 | [4] -0.017 | [5] -0.014 | [6] -0.049 | [7] -0.015 | [8] 0.002 | [9] 0.032 | [10] 0.007 | [11] -0.047 | [12] -0.013 | [13] 0.021 | [14] 0.019 | [15] -0.038 | [16] 0.043 | [17] 0.045 | [18] -0.159 | [19] -0.016 | [20] 0.042

TRAPPC3 (UniProt O43617)
inactive: [1] 0.049 | [2] 0.025 | [3] 0.045 | [4] 0.075 | [5] -0.015 | [6] -0.016 | [7] 0.02 | [8] -0.006 | [9] 0.031 | [10] 0.028 | [11] 0.005 | [12] -0.02 | [13] 0.1 | [14] -0.046 | [15] 0.042 | [16] 0.071 | [17] -0.025 | [18] -0.001 | [19] -0.019 | [20] 0.036

TRIM21 (UniProt P19474)
inactive: [1] 0.002 | [2] 0.001 | [3] 0.085 | [4] 0.097 | [5] 0.022 | [6] -0.024 | [7] -0.049 | [8] 0.004 | [9] -0.102 | [10] -0.01 | [11] -0.024 | [12] 0.03 | [13] 0.065 | [14] -0.164 | [15] -0.116 | [16] 0.514 | [17] 0.25 | [18] -0.027 | [19] -0.05 | [20] -0.025

TRMT1 (UniProt Q9NXH9)
inactive: [1] 0.011 | [2] 0.018 | [3] 0.018 | [4] -0.029 | [5] -0.026 | [6] -0.005 | [7] -0.041 | [8] 0.03 | [9] 0.02 | [10] -0.006 | [11] -0.026 | [12] 0 | [13] 0.012 | [14] 0.014 | [15] 0.008 | [16] 0.007 | [17] 0.004 | [18] 0.046 | [19] 0.013 | [20] -0.006

TRAPPC6B (UniProt Q86SZ2)
inactive: [1] 0.01 | [2] -0.031 | [3] 0.025 | [4] -0.01 | [5] -0.012 | [6] 0.007 | [7] -0.016 | [8] -0.011 | [9] -0.011 | [10] 0.011 | [11] 0.003 | [12] -0.003 | [13] 0.087 | [14] -0.054 | [15] 0.007 | [16] 0.028 | [17] 0 | [18] 0.015 | [19] -0.006 | [20] -0.028

TRMT13 (UniProt Q9NUP7)
inactive: [1] 0.063 | [2] 0.058 | [3] 0.007 | [4] -0.04 | [5] -0.043 | [6] -0.038 | [7] -0.038 | [8] 0.033 | [9] 0.017 | [10] 0.005 | [11] 0.03 | [12] 0.031 | [13] -0.059 | [14] 0.071 | [15] -0.055 | [16] -0.102 | [17] 0.028 | [18] 0.015 | [19] 0.033 | [20] -0.054

TTC17 (UniProt Q96AE7)
inactive: [1] 0.02 | [2] 0.052 | [3] 0.088 | [4] -0.046 | [5] -0.027 | [6] 0.098 | [7] -0.001 | [8] 0.019 | [9] 0.034 | [10] -0.008 | [11] -0.033 | [12] -0.038 | [13] 0.142 | [14] -0.003 | [15] 0.072 | [16] -0.034 | [17] -0.029 | [18] 0.09 | [19] 0.092 | [20] 0.027

TRIM38 (UniProt O00635)
inactive: [1] -0.049 | [2] -0.025 | [3] -0.016 | [4] 0.012 | [5] -0.013 | [6] -0.023 | [7] 0.036 | [8] 0.018 | [9] 0.059 | [10] -0.034 | [11] 0.04 | [12] 0.05 | [13] 0.045 | [14] -0.087 | [15] -0.025 | [16] 0.021 | [17] 0.118 | [18] -0.038 | [19] 0.093 | [20] 0.05

TSPAN14 (UniProt Q8NG11)
inactive: [1] 0.039 | [2] 0.005 | [3] 0.016 | [4] 0.026 | [5] -0.019 | [6] 0.042 | [7] -0.02 | [8] 0.053 | [9] -0.016 | [10] -0.032 | [11] 0.019 | [12] 0.019 | [13] 0.077 | [14] -0.045 | [15] 0.015 | [16] -0.039 | [17] -0.079 | [18] 0.077 | [19] -0.02 | [20] -0.007

TRAPPC10 (UniProt P48553)
inactive: [1] -0.006 | [2] -0.004 | [3] 0.025 | [4] -0.03 | [5] 0.027 | [6] 0.002 | [7] -0.029 | [8] 0.019 | [9] 0.02 | [10] -0.004 | [11] 0.022 | [12] 0.009 | [13] 0.027 | [14] -0.063 | [15] -0.052 | [16] 0.022 | [17] -0.061 | [18] 0.071 | [19] 0.016 | [20] -0.039

TRMT1L (UniProt Q7Z2T5)
inactive: [1] -0.024 | [2] 0.016 | [3] 0.017 | [4] -0.009 | [5] -0.002 | [6] -0.027 | [7] -0.013 | [8] 0.003 | [9] 0.028 | [10] 0.022 | [11] 0.021 | [12] 0.02 | [13] 0.025 | [14] -0.067 | [15] -0.018 | [16] 0.013 | [17] -0.084 | [18] 0.082 | [19] 0.023 | [20] 0.037

TRIT1 (UniProt Q9H3H1)
inactive: [1] 0.122 | [2] 0.021 | [3] 0.085 | [4] 0.011 | [5] 0.025 | [6] -0.012 | [7] -0.035 | [8] -0.036 | [9] 0.008 | [10] 0.027 | [11] 0.067 | [12] 0.008 | [13] -0.015 | [14] -0.002 | [15] -0.061 | [16] 0.028 | [17] -0.029 | [18] -0.041 | [19] 0.04 | [20] 0.025

TRIP11 (UniProt Q15643)
inactive: [1] -0.032 | [2] -0.021 | [3] 0.003 | [4] -0.021 | [5] 0.017 | [6] 0.087 | [7] 0.004 | [8] -0.001 | [9] -0.006 | [10] -0.011 | [11] 0.042 | [12] 0.028 | [13] 0.083 | [14] 0.045 | [15] -0.001 | [16] 0.037 | [17] -0.131 | [18] -0.126 | [19] 0 | [20] 0.027
